The list does not hold the whole screen: it gathers tests that were run many times, whatever their T/C, doses with no T/C, and many T/C values between a quarter and a half above the control. Other doses and runs of a compound stand elsewhere. T/C gives the treated animals as a percentage of the vehicle group. Some doses have a count of surviving animals in place of a T/C: the source holds a T/C of zero for them, seemingly a mark for toxic or unscored doses. Some survivor counts are full or nearly so, which does not show that the dose was tolerated: survival well below the control is almost never listed, so the zero probably covers shortened survival too. Counts of survivors are from the toxicity check (mostly the fifth day) where no day follows; animals may have died later. Schedule codes are those of the source, read here as Q, the interval in days (D) or hours (H), X, the number of doses. Some entries were tested several times; the results are listed from low to high. Where survival is the endpoint, this PubChem deposit counts one and a half times the control or more as active, and values a quarter to a half above the control carry no call in these data; other NCI protocols may use other cut-offs. Some T/C values carry the count of animals alive at the toxicity check (mostly the fifth day); without a count, all were alive then.
System: BDF1 mice, P388 leukemia ip, median survival T/C
Test: NCI In Vivo Anticancer Drug Screen. Data for tumor model P388 Leukemia (intraperitoneal) in B6D2F1 (BDF1) mice
Conditions: T/C endpoint: median survival time, higher T/C = longer survival
Procedure, shortened: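 Antitumour effect was judged in vivo: survival in drug-treated mice, normalised to that of vehicle-dosed controls, gives the reported T/C.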

[1] = dose: 200.0 mg/kg/injection, schedule: Q01DX009 (ip), vehicle: Klucel (hydroxypropylcellulose) (HPC)
[2] = dose: 50.0 mg/kg/injection, schedule: Q01DX009 (ip), vehicle: saline
[3] = dose: 50.0 mg/kg/injection, schedule: Q04DX003 (ip), vehicle: saline
[4] = dose: 100.0 mg/kg/injection, schedule: Q04DX003 (ip), vehicle: saline
[5] = dose: 200.0 mg/kg/injection, schedule: Q04DX003 (ip), vehicle: saline
[6] = dose: 200.0 mg/kg/injection, schedule: Q01DX009 (ip), vehicle: saline with Tween-80
[7] = dose: 100.0 mg/kg/injection, schedule: Q01DX009 (ip), vehicle: saline with Tween-80

## O=C(Nc1ccc(NC(=O)c2ccccc2)c(Sc2ccccc2)c1Sc1ccccc1)c1ccccc1
dose: 200.0 mg/kg/injection, schedule: Q01DX001 (ip), vehicle: saline with Tween-80
  survivor count: 6 of 6

## [Cl][Hg][c]1ccc2ccccc2c1
dose: 25.0 mg/kg/injection, schedule: Q01DX009 (ip), vehicle: gum acacia
  survivor count: 1 of 6
dose: 50.0 mg/kg/injection, schedule: Q01DX009 (ip), vehicle: gum acacia
  survivor count: 0 of 6

## C[C@@H]1C[C@](O)([C@@H](C)Cl)C(=O)O[C@@H]2CCN3CC=C(COC(=O)[C@]1(C)O)[C@H]23
dose: 7.5 mg/kg/injection, schedule: Q01DX010 (ip), vehicle: saline
  T/C: 138 % of control
dose: 15.0 mg/kg/injection, schedule: Q01DX010 (ip), vehicle: saline
  T/C: 133 % of control

## CCCCCCCCCCCC(=O)CCCC
dose: 400.0 mg/kg/injection, schedule: Q01DX009 (ip), vehicle: other
  survivor count: 6 of 6

## Cc1onc(-c2c(Cl)cccc2Cl)c1C(=O)Nc1ccccc1CC1c2ccccc2CCN1C (configuration not stated)
dose: 100.0 mg/kg/injection, schedule: Q01DX009 (ip), vehicle: Klucel (hydroxypropylcellulose) (HPC)
  survivor count: 6 of 6
[1]
  survivor count: 6 of 6

## CN(C)c1ccc(/C=C/c2ccccn2)cc1
dose: 50.0 mg/kg/injection, schedule: Q01DX009 (ip), vehicle: saline with Tween-80
  survivor count: 6 of 6

## O=C(O)/C=C/C(=O)Nc1ccc(Cl)c(Cl)c1
[1]
  T/C: 131 % of control

## CC(C)=CC(=O)OCC1CC[N+](C)([O-])C1 (configuration not stated)
[2]
  survivor count: 4 of 4
dose: 400.0 mg/kg/injection, schedule: Q01DX001 (ip), vehicle: saline
  survivor count: 6 of 6
dose: 1600.0 mg/kg/injection, schedule: Q01DX001 (ip), vehicle: saline
  survivor count: 0 of 6

## NS(=O)(=O)c1ccc(Cl)cc1
dose: 150.0 mg/kg/injection, schedule: Q01DX009 (ip), vehicle: saline
  survivor count: 0 of 6
dose: 225.0 mg/kg/injection, schedule: Q01DX009 (ip), vehicle: saline
  survivor count: 0 of 6
dose: 335.0 mg/kg/injection, schedule: Q01DX009 (ip), vehicle: saline
  survivor count: 0 of 6

## OCCN1CCN(CC/C=C2/c3ccccc3Sc3ccc(Cl)cc32)CC1
dose: 12.5 mg/kg/injection, schedule: Q01DX009 (ip), vehicle: saline
  T/C: 131 % of control
dose: 18.7 mg/kg/injection, schedule: Q01DX009 (ip), vehicle: saline
  T/C: 125 % of control
dose: 22.0 mg/kg/injection, schedule: Q04DX003 (ip), vehicle: saline
  T/C: 140 % of control
[2]
  survivor count: 4 of 6
[3]
  survivor count: 0 of 6
dose: 75.0 mg/kg/injection, schedule: Q04DX003 (ip), vehicle: saline
  survivor count: 0 of 6
[4]
  survivor count: 5 of 6
[5]
  survivor count: 0 of 6
dose: 400.0 mg/kg/injection, schedule: Q04DX003 (ip), vehicle: saline
  survivor count: 0 of 6

## CC(=O)OCCCC/C(=C/c1cc2ccccc2c2ccccc12)[N+](=O)[O-]
[1]
  survivor count: 2 of 6

## CC(=O)OC1CCC2(C)CCCC(O)C2(O)C1 (configuration not stated)
[6]
  survivor count: 6 of 6

## CC(=O)OCC1OC(n2cnc3c(=S)nc(N)[nH]c32)C(OC(C)=O)C1OC(C)=O (configuration not stated)
dose: 8.0 mg/kg/injection, schedule: Q01DX009 (ip), vehicle: saline with Tween-80
  T/C: 127 % of control
[7]
  survivor count: 6 of 6
[6]
  survivor count: 3 of 6
dose: 300.0 mg/kg/injection, schedule: Q04DX003 (ip), vehicle: saline with Tween-80
  T/C: 125 % of control

## COc1ccc2nc3c4ccccc4scc-3c2c1
dose: 225.0 mg/kg/injection, schedule: Q04DX003 (ip), vehicle: Klucel (hydroxypropylcellulose) (HPC)
  T/C: 138 % of control
dose: 335.0 mg/kg/injection, schedule: Q04DX003 (ip), vehicle: Klucel (hydroxypropylcellulose) (HPC)
  survivor count: 2 of 6

## C(COCC1CO1)OCC1CO1 (configuration not stated)
dose: 25.0 mg/kg/injection, schedule: Q04DX003 (ip), vehicle: saline with Tween-80
  T/C: 125 % of control
[3]
  T/C: 125 and 129 % of control
dose: 100.0 mg/kg/injection, schedule: Q01DX009 (ip), vehicle: saline
  survivor count: 4 of 6
[4]
  T/C: 145 % of control
[5]
  survivor count: 6 of 6

## Clc1cc(Cl)c2c(c1)COCO2
dose: 400.0 mg/kg/injection, schedule: Q01DX009 (ip), vehicle: Klucel (hydroxypropylcellulose) (HPC)
  survivor count: 0 of 6

## CCCC(=O)NC1=C(N2CC2)C(=O)C(NC(=O)CCC)=C(N2CC2)C1=O
dose: 1.0 mg/kg/injection, schedule: Q01DX009 (ip), vehicle: saline
  T/C: 138 % of control
dose: 1.25 mg/kg/injection, schedule: Q04DX003 (ip), vehicle: saline with Tween-80
  T/C: 137 % of control
dose: 2.0 mg/kg/injection, schedule: Q01DX009 (ip), vehicle: saline
  T/C: 142 % of control
dose: 4.0 mg/kg/injection, schedule: Q01DX009 (ip), vehicle: saline
  survivor count: 6 of 6
dose: 8.0 mg/kg/injection, schedule: Q01DX009 (ip), vehicle: saline
  survivor count: 6 of 6

## Cc1ccc(CNc2cccnc2)cc1
[6]
  survivor count: 5 of 6

## Cc1nc2c(sc(=N)n2-c2ccccc2)c(=O)[nH]1
[7]
  survivor count: 3 of 6
[6]
  survivor count: 0 of 6

## COc1cc2cc(c1Cl)N(C)C(=O)C[C@H](OC(=O)[C@H](C)N(C)C(=O)CC(C)C)[C@]1(C)O[C@H]1[C@H](C)[C@@H]1C[C@@](O)(NC(=O)O1)[C@H](OC)C=C/C=C(\C)C2
dose: 0.1 micrograms/kg/injection, schedule: Q01DX009 (ip), vehicle: saline + alcohol
  T/C: 128 % of control
dose: 0.2 micrograms/kg/injection, schedule: Q01DX009 (ip), vehicle: saline + alcohol
  T/C: 125 and 144 % of control
dose: 0.4 micrograms/kg/injection, schedule: Q01DX009 (ip), vehicle: saline + alcohol
  T/C: 125 % of control
dose: 0.8 micrograms/kg/injection, schedule: Q01DX009 (ip), vehicle: saline + alcohol
  T/C: 133 % of control
dose: 1.6 micrograms/kg/injection, schedule: Q01DX009 (ip), vehicle: saline + alcohol
  T/C: 137 % of control [3 of 4 alive]
dose: 25.0 micrograms/kg/injection, schedule: Q01DX009 (ip), vehicle: saline + alcohol
  survivor count: 4 of 4
dose: 50.0 micrograms/kg/injection, schedule: Q01DX009 (ip), vehicle: saline + alcohol
  survivor count: 3 of 4 and 6 of 6

## O=C(CI)Nc1ccc(Br)cc1
dose: 52.5 mg/kg/injection, schedule: Q04DX003 (ip), vehicle: Klucel (hydroxypropylcellulose) (HPC)
  survivor count: 3 of 6
dose: 105.0 mg/kg/injection, schedule: Q04DX003 (ip), vehicle: Klucel (hydroxypropylcellulose) (HPC)
  survivor count: 0 of 6

## CCCCNC(=O)OC
[1]
  survivor count: 6 of 6

From PubChem BioAssay AID328 (DTP/NCI, 2004)
